In PMC7600770 one finds binding data, which are given here for two substances.

Amino acid sequences for entries named in this document (tags omitted). A change or cut given only in a name is not applied to a line headed by its entry.
UniProt O14980: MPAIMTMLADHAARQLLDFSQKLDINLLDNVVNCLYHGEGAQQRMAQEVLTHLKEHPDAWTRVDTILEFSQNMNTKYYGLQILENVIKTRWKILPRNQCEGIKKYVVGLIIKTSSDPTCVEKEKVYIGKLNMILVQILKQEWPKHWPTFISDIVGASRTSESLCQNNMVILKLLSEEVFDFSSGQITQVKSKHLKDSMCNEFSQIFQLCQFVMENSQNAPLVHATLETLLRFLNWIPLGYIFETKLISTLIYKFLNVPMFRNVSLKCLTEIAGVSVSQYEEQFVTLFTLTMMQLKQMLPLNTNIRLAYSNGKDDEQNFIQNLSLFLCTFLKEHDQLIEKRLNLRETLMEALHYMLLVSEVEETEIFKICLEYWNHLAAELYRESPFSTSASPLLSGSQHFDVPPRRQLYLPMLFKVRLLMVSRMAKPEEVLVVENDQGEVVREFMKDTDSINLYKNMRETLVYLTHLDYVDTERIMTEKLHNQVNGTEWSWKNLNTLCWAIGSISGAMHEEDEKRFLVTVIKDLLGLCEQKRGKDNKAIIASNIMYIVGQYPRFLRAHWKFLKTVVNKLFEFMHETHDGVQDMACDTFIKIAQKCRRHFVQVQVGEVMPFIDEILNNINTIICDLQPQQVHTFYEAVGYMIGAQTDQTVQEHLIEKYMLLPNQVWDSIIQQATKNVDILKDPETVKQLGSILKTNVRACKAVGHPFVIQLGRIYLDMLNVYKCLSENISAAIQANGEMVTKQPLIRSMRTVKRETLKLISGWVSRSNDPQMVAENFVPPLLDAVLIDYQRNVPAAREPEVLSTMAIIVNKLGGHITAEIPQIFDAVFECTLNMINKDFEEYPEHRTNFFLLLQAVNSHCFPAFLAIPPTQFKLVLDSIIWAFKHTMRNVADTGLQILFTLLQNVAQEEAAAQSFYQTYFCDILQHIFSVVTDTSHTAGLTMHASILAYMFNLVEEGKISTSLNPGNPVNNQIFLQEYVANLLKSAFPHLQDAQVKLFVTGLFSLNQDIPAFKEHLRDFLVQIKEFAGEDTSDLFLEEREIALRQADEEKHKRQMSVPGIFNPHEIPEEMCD
UniProt Q9UJV9: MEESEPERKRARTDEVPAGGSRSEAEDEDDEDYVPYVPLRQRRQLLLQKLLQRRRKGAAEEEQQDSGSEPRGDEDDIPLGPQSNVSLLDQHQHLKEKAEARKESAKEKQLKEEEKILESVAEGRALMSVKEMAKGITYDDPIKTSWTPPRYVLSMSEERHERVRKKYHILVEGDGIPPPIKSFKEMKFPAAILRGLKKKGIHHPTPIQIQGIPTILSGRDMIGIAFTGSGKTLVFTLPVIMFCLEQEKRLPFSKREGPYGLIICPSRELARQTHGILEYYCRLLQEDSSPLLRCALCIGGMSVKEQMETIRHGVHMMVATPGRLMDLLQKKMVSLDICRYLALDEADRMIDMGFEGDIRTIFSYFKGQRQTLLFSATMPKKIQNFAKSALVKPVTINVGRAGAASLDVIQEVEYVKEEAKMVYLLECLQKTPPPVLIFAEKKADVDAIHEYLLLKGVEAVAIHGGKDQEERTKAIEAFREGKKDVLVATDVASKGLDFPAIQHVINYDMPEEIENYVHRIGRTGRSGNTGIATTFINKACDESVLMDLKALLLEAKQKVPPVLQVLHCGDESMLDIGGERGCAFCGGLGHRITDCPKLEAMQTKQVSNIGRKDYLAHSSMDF
UniProt Q14974: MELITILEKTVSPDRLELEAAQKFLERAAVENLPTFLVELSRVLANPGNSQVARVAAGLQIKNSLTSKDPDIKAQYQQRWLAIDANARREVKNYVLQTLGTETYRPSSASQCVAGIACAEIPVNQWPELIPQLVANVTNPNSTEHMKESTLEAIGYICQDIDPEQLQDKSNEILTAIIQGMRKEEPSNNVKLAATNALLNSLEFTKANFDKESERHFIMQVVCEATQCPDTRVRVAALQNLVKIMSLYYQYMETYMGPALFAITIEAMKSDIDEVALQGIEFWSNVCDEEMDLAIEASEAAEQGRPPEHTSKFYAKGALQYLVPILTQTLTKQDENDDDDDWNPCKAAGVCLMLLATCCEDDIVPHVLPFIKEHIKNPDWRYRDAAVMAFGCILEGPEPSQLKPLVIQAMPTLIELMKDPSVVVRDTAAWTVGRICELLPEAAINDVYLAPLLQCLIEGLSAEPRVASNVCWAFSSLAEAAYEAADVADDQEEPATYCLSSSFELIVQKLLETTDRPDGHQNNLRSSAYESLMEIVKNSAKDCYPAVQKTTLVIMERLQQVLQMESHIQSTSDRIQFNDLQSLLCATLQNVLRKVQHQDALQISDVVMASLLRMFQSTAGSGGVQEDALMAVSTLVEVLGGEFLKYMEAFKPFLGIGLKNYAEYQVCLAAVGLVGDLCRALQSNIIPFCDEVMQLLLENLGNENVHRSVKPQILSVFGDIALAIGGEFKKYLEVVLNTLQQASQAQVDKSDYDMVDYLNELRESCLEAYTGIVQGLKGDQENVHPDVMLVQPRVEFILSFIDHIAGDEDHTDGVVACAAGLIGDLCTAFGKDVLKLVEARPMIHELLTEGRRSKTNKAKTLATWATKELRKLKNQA

The target in assay [1] is exportin 1 (XPO1), wild type (human (endogenous in U2940 and K1106)) (UniProt O14980). Description: affinity purification with mass spectrometry; endogenous XPO1 immunoprecipitated with anti-XPO1 Ab on Dynabeads Protein A from whole-cell lysates of K1106 and MedB1 cells (25 mM Tris-HCl pH7.5, 150 mM NaCl, 5 mM EDTA, 10% glycerol, 0.5% NP40); Ig of the same isotype as control; four biological replicates; trypsin digestion, nano-LC-MS.

Assay [2] concerns the target exportin 1 E571K mutant (XPO1^E571K) (human (endogenous in MedB1 and UH-01)) (UniProt O14980). Described as above.

No constants are given. Whether binding was seen depends on the method and setting. In cells and extracts the contact can be indirect. A yes stands for co-enrichment or nearness to the bait. Other partners may have been found.

As for DDX41 (from UniProt Q9UJV9 1-622), in assay [1], the binding result was “binds”.

With “karyopherin β1 (importin β1, KPNB1, IPO1) (from UniProt Q14974 1-876)”, the binding entry in assay [2] is “binds”.
